From article PMC10199885
These are yes or no findings as the source states them, for the method shown. Binding seen in cells or lysates may run through a third protein. Some entries that bind do so weakly or less than the wild type. Each block holds one binder with its values, some of them ahead of it.

Sequences of proteins named here, by UniProt entry; tags and fusion partners are left off. Residues count along the entry.
UniProt Q10589, residues 1-161: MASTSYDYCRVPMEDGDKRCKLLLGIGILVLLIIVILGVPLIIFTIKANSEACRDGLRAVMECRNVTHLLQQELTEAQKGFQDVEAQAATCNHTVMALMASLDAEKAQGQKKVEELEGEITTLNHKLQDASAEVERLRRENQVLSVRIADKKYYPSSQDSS

Legend:
[1] = molecular target: HA-CD317 (expressed in HeLa cells) (human) (UniProt Q10589); assay: co-IP; lysates of HA-CD317-transfected HeLa cells, IP with anti-HA on protein-A/G Dynabeads; IP buffer 150 mM NaCl, 50 mM Tris-HCl pH 7.4, 50 mM EDTA, 1.0% Nonidet P-40; blot with CD317 and CNX mAbs
[2] = molecular target: endogenous CD317 (Jurkat cells) (human (endogenous in Jurkat)) (UniProt Q10589); assay: co-IP; Jurkat cells treated 6 h with or without 100 nM BAF, IP of endogenous CD317 (anti-CD317), blot for CNX

- binding [1]: binds
B1: endogenous CNX (HeLa cells) (protein, UniProt P27824 21-592)
chain: HDGHDDDVIDIEDDLDDVIEEVEDSKPDTTAPPSSPKVTYKAPVPTGEVYFADSFDRGTLSGWILSKAKKDDTDDEIAKYDGKWEVEEMKESKLPGDKGLVLMSRAKHHAISAKLNKPFLFDTKPLIVQYEVNFQNGIECGGAYVKLLSKTPELNLDQFHDKTPYTIMFGPDKCGEDYKLHFIFRHKNPKTGIYEEKHAKRPDADLKTYFTDKKTHLYTLILNPDNSFEILVDQSVVNSGNLLNDMTPPVNPSREIEDPEDRKPEDWDERPKIPDPEAVKPDDWDEDAPAKIPDEEATKPEGWLDDEPEYVPDPDAEKPEDWDEDMDGEWEAPQIANPRCESAPGCGVWQRPVIDNPNYKGKWKPPMIDNPSYQGIWKPRKIPNPDFFEDLEPFRMTPFSAIGLELWSMTSDIFFDNFIICADRRIVDDWANDGWGLKKAADGAAEPGVVGQMIEAAEERPWLWVVYILTVALPVFLVILFCCSGKKQTSGMEYKKTDAPQPDVKEEEEEKEEEKDKGDEEEEGEEKLEEKQKSDAEEDGGTVSQEEEDRKPKAEEDEILNRSPRNRKPRRE

- binding [2]: binds
B2: CNX (Jurkat cells) (protein, UniProt P27824 21-592)
chain: B1 chain
